The record followed here is publication PMC6294567, “The C-terminal D/E-rich domain of MBD3 is a putative Z-DNA mimic that competes for Zα DNA-binding activity” (Nucleic Acids Research, 2018).

The target in the series is T1, MBD3 MBD domain (MBD3MBD) (Homo sapiens) (UniProt O95983).
T1 sequence (looked up): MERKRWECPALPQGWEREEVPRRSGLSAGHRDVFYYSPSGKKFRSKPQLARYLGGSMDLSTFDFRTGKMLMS
Description: circular dichroism. The settings on record: DNA kept in B-form; recombinant protein; residues 1-72; protein details: His6 removed by TEV.

The exact form of at least one protein or probe is not confirmed. At least one verdict rests on a figure or table, not on a statement of the authors. Tags and fusion partners may be left off the protein sequences shown.

CGCGCGCGCGCG (double strand) [d(CG)6]: the binding result is recorded as “binds”.
